In all, about 340,000 compounds went through this assay and about 55 (0.02%) were called active. Inconclusive results, whose numbers are uncertain, are shown with a selection of clear calls.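 The calls were made as follows: active = phage lysis inhibition, versus mean bacterial control, above a set limit; inconclusive = no clear call, values can overlap the other calls; inactive = the rest.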
Assay: protection from phage-mediated lysis, alamar blue read-out – E. coli UTI89, K1F phage, bacterial capsule biogenesis inhibitors (AID 488966);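 also: capsule biogenesis inhibitors block K1F phage lysis so surviving cells raise fluorescence; higher fluorescence means more inhibition of phage lysis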
Conditions: 2 h; inhibition: at 100 µM, hits give high values unless noted; series mostly up to 300 µM

Row | SMILES | inhibition
1 | CC1=C(C(=O)Nc2cccc(C(=O)NC(C)c3ccccc3)c2)SCCO1 (stereo not drawn) | inconclusive: 7.5%
2 | Cc1c(NC(=O)C2CCN(S(=O)(=O)c3ccc(Cl)cc3)CC2)c(=O)n(-c2ccccc2)n1C | inconclusive: 16.9%
3 | CC1(C)S[C@@H]2[C@H](NC(=O)[C@H](N)c3ccccc3)C(=O)N2[C@H]1C(=O)OC1OC(=O)c2ccccc21 (stereo partly drawn) | inconclusive: 23.4%
4 | CCOC(=O)C1(Cc2ccccc2Cl)CCN(S(=O)(=O)N(C)C)CC1 | inconclusive: 17.5%
5 | O=C(CSc1nc2ccc(Cl)cc2[nH]1)NCCc1ccc(Cl)cc1 | inactive: 0.86%
6 | COc1ccc(CCNS(=O)(=O)c2cccs2)cc1 | inconclusive: 15.4%
7 | O=C1CCCN1C(=O)CSc1ccc2ccccc2n1 | inactive: 0.65% [at 50 µM, hits give high values]
8 | COc1ccc(C(=O)OCC(=O)NC(C)CCc2ccccc2)cc1OC (stereo not drawn) | inactive: -0.14%
9 | Cc1cc(C)nc(SCC(=O)c2ccc([N+](=O)[O-])cc2)n1 | inconclusive: 15.8%
10 | CCCCNC(=O)COC(=O)c1cc(S(=O)(=O)N2CCCCCC2)ccc1OC | inconclusive: 16.1%
11 | COc1cccc2c1C(CO)N1C(C#N)C3CC(C(=O)O)C(C1C2)N3C (stereo not drawn) | inconclusive: 116%
12 | Cc1ccccc1NC(=O)NCCCN1CCN(C)CC1 | inactive: -0.845% [at 50 µM, hits give high values]
13 | O=C1CNC(=S)N1CCCn1ccnc1 | inconclusive: 17.5%
14 | Cc1occc1C(=O)NNC(=O)CN1C(=O)NC2(CCCCC2)C1=O | inactive: 1% [at 50 µM, hits give high values]
15 | NC(N)=NCCCC(NC(=O)c1ccccc1)C(=O)Nc1ccc([N+](=O)[O-])cc1 (stereo not drawn) | inconclusive: 15.1%
16 | O=C(Nc1ccc(O)c(-c2nc3ccccc3o2)c1)C1(c2ccc(Cl)cc2)CCCC1 | inconclusive: 19.7%
17 | CN(C)S(=O)(=O)c1ccc2oc(SCC(=O)NCC(F)(F)F)nc2c1 | inconclusive: 15.3%
18 | C=CCc1c(C)nc(SCc2nc3ccccc3c(=O)[nH]2)[nH]c1=O | inconclusive: 16.3%
19 | CC(C)(C)NS(=O)(=O)c1ccc(NC(=O)C2CCCO2)cc1 (stereo not drawn) | inconclusive: 83.4%
20 | Cn1c(=O)c2[nH]c(NN=Cc3ccc(Br)cc3)nc2n(C)c1=O | inconclusive: 29.4%
21 | O=C(COc1ccc(Br)cc1)N/N=C1/SCC(=O)N1Cc1ccccc1 | inconclusive: 18.8%

Row | SMILES | inhibition
22 | COc1ccccc1NC(=O)CCCc1c[nH]c2ccccc12 | inconclusive: 16.1%
23 | Cc1ccc(C(=O)ONc2ccc(N=NC(=O)c3ccccc3O)cc2)cc1 | inactive: -1.4%
24 | CCC1(CC)C(=O)NC(=O)NC1=NCCc1c[nH]c2ccccc12 | inactive: 8.91%
25 | Cc1cc(C)c(C#N)c(SCC(=O)N2CCCCC2)n1 | inconclusive: 21%
26 | COc1cc(/C=C2\C(=N)N3N=C(S(C)(=O)=O)SC3=NC2=O)ccc1OC(=O)c1ccco1 | inconclusive: 111%
27 | O=S(=O)(c1ccc(S(=O)(=O)N(Cc2ccco2)Cc2ccccc2Cl)cc1)N1CCCC1 | inactive: 0.31%
28 | CC(C)(C)C(=O)OCOC(=O)[C@@H]1N2C(=O)[C@@H](N=CN3CCCCCC3)[C@H]2SC1(C)C | inconclusive: 103%
29 | O=C(Nc1cccc(O)c1)c1ccc(NC(=O)c2cccs2)cc1 | inconclusive: 19.7%
30 | CC(C)(C)CC(C)(C)NCC(O)COc1ccc2c(c1)CCC2 (stereo not drawn) | inconclusive: 15.9%
31 | Cc1ccc(NC(=O)CSc2n[nH]c(-c3cccnc3)n2)cc1Cl | inconclusive: 112%
32 | CN(C)CCN(C(=O)c1ccc2c(c1)OCCO2)c1nc2ccc(Cl)cc2s1 | inactive: 3.17% [at 50 µM, hits give high values]
33 | CCNc1cccc2c1C(=O)N(C)C2=O | inconclusive: 16%
34 | CCCCCCn1c(N2CCN(c3cccc(Cl)c3)CC2)nc2c1c(=O)[nH]c(=O)n2C | inactive: -0.58%
35 | Cc1cc(C)c2sc(NC(=O)c3ccc([N+](=O)[O-])o3)nc2c1 | inconclusive: 40.8%
36 | COc1ccc(Cc2nnc(Nc3ccc4c(c3)OCCO4)[nH]c2=O)cc1 | inconclusive: 19.9%
37 | CCCCN1C(=N)N([C@@H](C)CN2CCC[C@H]2CN2C(N)=NC[C@H]2CC(C)C)C[C@H]1Cc1ccccc1 | inconclusive: 16.2%
38 | COc1ccc2cc1Oc1ccc(cc1)CC1c3c(cc(OC)c4c3Oc3cc5c(cc3O4)CCNC5C2)CCN1C (stereo not drawn) | inconclusive: 17.6%
39 | Cc1nn(CCc2n[nH]c(=S)n2C)c(C)c1Br | inconclusive: 20.1%
40 | C#CCOCCOCCOCCNc1nc(N2CCN(C(=O)[C@H](CCCCN)n3cc(CCCC)nn3)CC2)nc(N2CCN(C(=O)[C@H](CCCCN)n3cc(CCCC)nn3)CC2)n1 | inconclusive: 16.1%
41 | COc1ccc(/C=N/NC(=O)c2ccc(O)cc2O)cc1CSc1ccccn1 | inconclusive: 19.5%
42 | NC(=S)Cc1nc(-c2ccccc2)cs1 | inconclusive: 19.9%

Row | SMILES | inhibition
43 | CSc1nnc2c(=O)[nH]c(=O)n(C)c2n1 | inconclusive: 48.1%
44 | Cc1ccc(C(=O)Nc2ccc(N3CCOCC3)nc2N2CCOCC2)cc1 | inconclusive: 16.5%
45 | COc1ccc(-c2nc(-c3ccc(Br)cc3)no2)c(OC)c1 | inconclusive: 20.8%
46 | CCOC(=O)CSCC(=O)N1N=C(c2cccs2)CC1c1ccc(F)cc1 (stereo not drawn) | inconclusive: 17%
47 | O=C(Nc1cccc2cccnc12)c1ccc(Br)o1 | inconclusive: 15.6%
48 | O=C1CCc2cc(NS(=O)(=O)c3ccc(Cl)cc3)cc3c2N1CC3 | inactive: -0.37% [at 50 µM, hits give high values]
49 | Cc1cccc(OCCCCCn2ccnc2)c1C | inconclusive: 21%
50 | O=C1c2ccccc2C2=Nc3ccccc3SC(c3ccc(Cl)cc3)C12 (stereo not drawn) | inconclusive: 20.6%
51 | CC1CCCC(NC(=O)COC(=O)c2ccc([N+](=O)[O-])o2)C1C (stereo not drawn) | inconclusive: 21.1%
52 | Cc1cccc(OCC(=O)Nc2ccc(C(=O)Nc3ccccc3C(=O)O)cc2)c1C | inactive: 1.06% [at 50 µM, hits give high values]
53 | Nc1nnc(Cc2ccc(F)cc2)s1 | inconclusive: 15.1%
54 | Cc1cc2oc3c(c(=O)c2cc1C)C(c1ccc(C(C)C)cc1)N(CCCN1CCOCC1)C3=O (stereo not drawn) | inactive: 10.9%
55 | COc1cc(CCC(=O)NCC2CCCO2)cc(OC)c1OC (stereo not drawn) | inactive: 0.13%
56 | CC1(C)CC(NCc2ccc3c(c2)OCO3)CCO1 (stereo not drawn) | inconclusive: 19.7%
57 | CC1Cc2ccccc2N1C(=O)COC(=O)CSc1ccc(F)cc1 (stereo not drawn) | inactive: 0.27% [at 50 µM, hits give high values]
58 | Cc1ccc(C2(O)CN(c3ccccc3C)C3=[N+]2CCS3)cc1 (stereo not drawn) | inconclusive: 15.6%
59 | Cc1ccc(C)c(NC(=O)COC(=O)CCc2ccc(S(=O)(=O)N3CCOCC3)cc2)c1 | inactive: -0.17%
60 | Cc1sc(NC(=O)Cn2[nH]c(=O)c3ccccc3c2=O)nc1-c1ccccc1 | inconclusive: 15.3%
61 | CCOC(=O)CNS(=O)(=O)c1cc(-c2n[nH]c(=O)c3ccccc23)ccc1C | inconclusive: 15.1%
62 | Cc1ccc(Oc2ccc(NC(=O)Cn3ccsc3=N)cc2)cc1 | inconclusive: 18.4%
63 | CC(=O)n1ccnc1 | inconclusive: 58%

20 entries from above, set out differently.

| Row | SMILES | inhibition |
| --- | --- | --- |
| 41 | COc1ccc(/C=N/NC(=O)c2ccc(O)cc2O)cc1CSc1ccccn1 | inconclusive: 19.5% |
| 42 | NC(=S)Cc1nc(-c2ccccc2)cs1 | inconclusive: 19.9% |
| 43 | CSc1nnc2c(=O)[nH]c(=O)n(C)c2n1 | inconclusive: 48.1% |
| 44 | Cc1ccc(C(=O)Nc2ccc(N3CCOCC3)nc2N2CCOCC2)cc1 | inconclusive: 16.5% |
| 46 | CCOC(=O)CSCC(=O)N1N=C(c2cccs2)CC1c1ccc(F)cc1 (stereo not drawn) | inconclusive: 17% |
| 47 | O=C(Nc1cccc2cccnc12)c1ccc(Br)o1 | inconclusive: 15.6% |
| 48 | O=C1CCc2cc(NS(=O)(=O)c3ccc(Cl)cc3)cc3c2N1CC3 | inactive: -0.37% [at 50 µM, hits give high values] |
| 49 | Cc1cccc(OCCCCCn2ccnc2)c1C | inconclusive: 21% |
| 50 | O=C1c2ccccc2C2=Nc3ccccc3SC(c3ccc(Cl)cc3)C12 (stereo not drawn) | inconclusive: 20.6% |
| 51 | CC1CCCC(NC(=O)COC(=O)c2ccc([N+](=O)[O-])o2)C1C (stereo not drawn) | inconclusive: 21.1% |
| 54 | Cc1cc2oc3c(c(=O)c2cc1C)C(c1ccc(C(C)C)cc1)N(CCCN1CCOCC1)C3=O (stereo not drawn) | inactive: 10.9% |
| 55 | COc1cc(CCC(=O)NCC2CCCO2)cc(OC)c1OC (stereo not drawn) | inactive: 0.13% |
| 56 | CC1(C)CC(NCc2ccc3c(c2)OCO3)CCO1 (stereo not drawn) | inconclusive: 19.7% |
| 57 | CC1Cc2ccccc2N1C(=O)COC(=O)CSc1ccc(F)cc1 (stereo not drawn) | inactive: 0.27% [at 50 µM, hits give high values] |
| 58 | Cc1ccc(C2(O)CN(c3ccccc3C)C3=[N+]2CCS3)cc1 (stereo not drawn) | inconclusive: 15.6% |
| 59 | Cc1ccc(C)c(NC(=O)COC(=O)CCc2ccc(S(=O)(=O)N3CCOCC3)cc2)c1 | inactive: -0.17% |
| 60 | Cc1sc(NC(=O)Cn2[nH]c(=O)c3ccccc3c2=O)nc1-c1ccccc1 | inconclusive: 15.3% |
| 61 | CCOC(=O)CNS(=O)(=O)c1cc(-c2n[nH]c(=O)c3ccccc23)ccc1C | inconclusive: 15.1% |
| 62 | Cc1ccc(Oc2ccc(NC(=O)Cn3ccsc3=N)cc2)cc1 | inconclusive: 18.4% |
| 63 | CC(=O)n1ccnc1 | inconclusive: 58% |

Further records

Row | SMILES | inhibition
64 | OC(CON=C1c2ccccc2-c2ccccc21)CN1CCNCC1 (stereo not drawn) | inconclusive: 16%
65 | NS(=O)(=O)c1ccc(NC(=S)N2CCN(c3cccc(Cl)c3)CC2)cc1 | inconclusive: 17.2%
66 | C#CCNc1nc(C(C)C)nc2c1nnn2Cc1ccccc1F | inconclusive: 19.2%
67 | O=C1CCc2cc(S(=O)(=O)N3CCC(C(=O)NCCC4=CCCCC4)CC3)ccc2N1 | inconclusive: 16.7%
68 | CCOC(=O)c1c(C)n(C)c2cc(-c3ccc(F)cc3)c(O)cc12 | inactive: 7.65%
69 | COc1ccc(NS(=O)(=O)c2cc(NC(=O)CNC(=O)c3cccc(OC)c3)ccc2C)cc1 | inconclusive: 17.9%
70 | N=C1/C(=C\c2ccc(Br)o2)C(=O)N=C2SC(CC(=O)N3CCCCC3)=NN12 | inconclusive: 32.7%
71 | C=CCn1c(C)nnc1SCC(=O)c1[nH]c(C)c(C(C)=O)c1C | inactive: -0.26%
72 | O=C(Nc1ccc(Cl)c(S(=O)(=O)N2CCOCC2)c1)[C@@H]1CCCN1C(=O)c1cccs1 | inactive: 0.43% [at 50 µM, hits give high values]
73 | CCOc1ccc(NC(=O)c2ccc(NC(=O)c3cn4c5c(c(N6CCN(C)CC6)c(F)cc5c3=O)OCC4C)cc2)cc1 (stereo not drawn) | inconclusive: 19.2% [at 50 µM, hits give high values]
74 | Cc1ccc(CSc2nnc([C@@H]3CCCN3C(=O)OC(C)(C)C)o2)cc1 | inconclusive: 17.2%
75 | Cc1nc([N+](=O)[O-])c(Br)n1Cc1ccccc1 | inconclusive: 16.2%
76 | CCN1C(=O)N[C@@H](c2cccc(C(F)(F)F)c2)[C@@H](C(=O)OC)[C@H]1C | inactive: 0.13%
77 | CC(OC(=O)CCCN1C(=O)c2ccccc2C1=O)C(=O)Nc1ncc(Cl)cc1Cl (stereo not drawn) | inactive: 0.75%
78 | Cc1cccc(CSC(=N)N)c1 | inactive: 7.29%
79 | NC(=O)C1CCN(C(=S)c2cccs2)CC1 | inconclusive: 20.6%
80 | CCN(CC)c1ccc(C(=O)Nc2cccc(F)c2)cc1 | inactive: 2.12%
81 | COC(=O)Nc1nc(Sc2ncc(C(F)(F)F)cc2Cl)n[nH]1 | inactive: 1.11%
82 | CCOC(=O)C1CCCN(c2c(NCCCN(C)Cc3ccccc3)c(=O)c2=O)C1 (stereo not drawn) | inactive: 2.34%
83 | CCOc1ccc(S(=O)(=O)NCc2cccnc2)cc1C | inactive: 0.14%

From PubChem BioAssay AID488966 (Southern Research Specialized Biocontainment Screening …, 2010)
